Patent publication US20140154252A1
These are yes or no findings as the source states them, for the method shown. Some entries that bind do so weakly or less than the wild type.

Chains of the proteins cited; added tags and fusions are not shown. Residues count along the entry.
UniProt P10747, residues 19-220: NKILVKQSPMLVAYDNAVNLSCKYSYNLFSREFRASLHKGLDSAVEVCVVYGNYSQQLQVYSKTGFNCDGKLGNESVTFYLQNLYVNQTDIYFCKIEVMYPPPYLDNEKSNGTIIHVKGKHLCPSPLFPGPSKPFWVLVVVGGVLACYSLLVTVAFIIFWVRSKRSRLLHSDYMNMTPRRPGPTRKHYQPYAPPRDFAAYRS

Key:
[1] = target: CD28 presented on CHO cells (UniProt P10747); assay: flow cytometry on CD28 CHO cells, protein A purified protein at 0.72 ug/ml, FITC goat anti-human IgG
[2] = target: CD28 presented on CHO cells (UniProt P10747); assay: flow cytometry on CD28 CHO cells, purified protein at 0.72 ug/ml

Binder | binding [1] | binding [2]
2H7-sss-hIgG-L6-2e12 (H6 linker, 2e12 VL-VH) (bispecific antibody, not shown: a dimerising Fc or GST) chain (part 1 of 2): QIVLSQSPAILSASPGEKVTMTCRASSSVSYMHWYQQKPGSSPKPWIYAPSNLASGVPARFSGSGSGTSYSLTISRVEAEDAATYYCQQWSFNPPTFGAGTKLELKDGGGSGGGGSGGGGSSQAYLQQSGAESVRPGASVKMSCKASGYTFTSYNMHWVKQTPRQGLEWIGAIYPGNGDTSYNQKFKGKATLTVDKSSSTAYMQLSSLTSEDSAVYFCARVVYYSNSYWYFDVWGTGTTVTVSEPKSSDKTHTSPPSP chain (part 2 of 2): GGGGSGGGGSGGGGSGNSDIVLTQSPASLAVSLGQRATISCRASESVEYYVTSLMQWYQQKPGQPPKLLISAASNVESGVPARFSGSGSGTDFSLNIHPVEEDDIAMYFCQQSRKVPWTFGGGTKLEIKRGGGGSGGGGSGGGGSQVQLKESGPGLVAPSQSLSITCTVSGFSLTGYGVNWVRQPPGKGLEWLGMIWGDGSTDYNSALKSRLSITKDNSKSQVFLKMNSLQTDDTARYYCARDGYSNFHYYVMDYWGQGTSVTVSS | binds | binds
2H7-sss-hIgG-L5-2e12 (H5 linker, 2e12 VL-VH) (bispecific antibody, not shown: a dimerising Fc or GST) chain (part 1 of 2): QIVLSQSPAILSASPGEKVTMTCRASSSVSYMHWYQQKPGSSPKPWIYAPSNLASGVPARFSGSGSGTSYSLTISRVEAEDAATYYCQQWSFNPPTFGAGTKLELKDGGGSGGGGSGGGGSSQAYLQQSGAESVRPGASVKMSCKASGYTFTSYNMHWVKQTPRQGLEWIGAIYPGNGDTSYNQKFKGKATLTVDKSSSTAYMQLSSLTSEDSAVYFCARVVYYSNSYWYFDVWGTGTTVTVSEPKSSDKTHTSPPSP chain (part 2 of 2): NYGGGGSGGGGSGNSDIVLTQSPASLAVSLGQRATISCRASESVEYYVTSLMQWYQQKPGQPPKLLISAASNVESGVPARFSGSGSGTDFSLNIHPVEEDDIAMYFCQQSRKVPWTFGGGTKLEIKRGGGGSGGGGSGGGGSQVQLKESGPGLVAPSQSLSITCTVSGFSLTGYGVNWVRQPPGKGLEWLGMIWGDGSTDYNSALKSRLSITKDNSKSQVFLKMNSLQTDDTARYYCARDGYSNFHYYVMDYWGQGTSVTVSS | binds | binds
2H7-sss-hIgG-L4-2e12 (H4 linker, 2e12 VL-VH) (bispecific antibody, not shown: a dimerising Fc or GST) chain (part 1 of 2): QIVLSQSPAILSASPGEKVTMTCRASSSVSYMHWYQQKPGSSPKPWIYAPSNLASGVPARFSGSGSGTSYSLTISRVEAEDAATYYCQQWSFNPPTFGAGTKLELKDGGGSGGGGSGGGGSSQAYLQQSGAESVRPGASVKMSCKASGYTFTSYNMHWVKQTPRQGLEWIGAIYPGNGDTSYNQKFKGKATLTVDKSSSTAYMQLSSLTSEDSAVYFCARVVYYSNSYWYFDVWGTGTTVTVSEPKSSDKTHTSPPSP chain (part 2 of 2): GGGGSGGGGSGNSDIVLTQSPASLAVSLGQRATISCRASESVEYYVTSLMQWYQQKPGQPPKLLISAASNVESGVPARFSGSGSGTDFSLNIHPVEEDDIAMYFCQQSRKVPWTFGGGTKLEIKRGGGGSGGGGSGGGGSQVQLKESGPGLVAPSQSLSITCTVSGFSLTGYGVNWVRQPPGKGLEWLGMIWGDGSTDYNSALKSRLSITKDNSKSQVFLKMNSLQTDDTARYYCARDGYSNFHYYVMDYWGQGTSVTVSS | binds | binds
2H7-sss-hIgG-L3-2e12 (H3 linker, 2e12 VL-VH) (bispecific antibody, not shown: a dimerising Fc or GST) chain (part 1 of 2): QIVLSQSPAILSASPGEKVTMTCRASSSVSYMHWYQQKPGSSPKPWIYAPSNLASGVPARFSGSGSGTSYSLTISRVEAEDAATYYCQQWSFNPPTFGAGTKLELKDGGGSGGGGSGGGGSSQAYLQQSGAESVRPGASVKMSCKASGYTFTSYNMHWVKQTPRQGLEWIGAIYPGNGDTSYNQKFKGKATLTVDKSSSTAYMQLSSLTSEDSAVYFCARVVYYSNSYWYFDVWGTGTTVTVSEPKSSDKTHTSPPSP chain (part 2 of 2): NYGGGGSGNSDIVLTQSPASLAVSLGQRATISCRASESVEYYVTSLMQWYQQKPGQPPKLLISAASNVESGVPARFSGSGSGTDFSLNIHPVEEDDIAMYFCQQSRKVPWTFGGGTKLEIKRGGGGSGGGGSGGGGSQVQLKESGPGLVAPSQSLSITCTVSGFSLTGYGVNWVRQPPGKGLEWLGMIWGDGSTDYNSALKSRLSITKDNSKSQVFLKMNSLQTDDTARYYCARDGYSNFHYYVMDYWGQGTSVTVSS | binds | binds
2H7-sss-hIgG-L2-2e12 (H2 linker, 2e12 VL-VH) (bispecific antibody, not shown: a dimerising Fc or GST) chain (part 1 of 2): QIVLSQSPAILSASPGEKVTMTCRASSSVSYMHWYQQKPGSSPKPWIYAPSNLASGVPARFSGSGSGTSYSLTISRVEAEDAATYYCQQWSFNPPTFGAGTKLELKDGGGSGGGGSGGGGSSQAYLQQSGAESVRPGASVKMSCKASGYTFTSYNMHWVKQTPRQGLEWIGAIYPGNGDTSYNQKFKGKATLTVDKSSSTAYMQLSSLTSEDSAVYFCARVVYYSNSYWYFDVWGTGTTVTVSEPKSSDKTHTSPPSP chain (part 2 of 2): GGGGSGNSDIVLTQSPASLAVSLGQRATISCRASESVEYYVTSLMQWYQQKPGQPPKLLISAASNVESGVPARFSGSGSGTDFSLNIHPVEEDDIAMYFCQQSRKVPWTFGGGTKLEIKRGGGGSGGGGSGGGGSQVQLKESGPGLVAPSQSLSITCTVSGFSLTGYGVNWVRQPPGKGLEWLGMIWGDGSTDYNSALKSRLSITKDNSKSQVFLKMNSLQTDDTARYYCARDGYSNFHYYVMDYWGQGTSVTVSS | binds | binds
2H7-sss-hIgG-L1-2e12 (H1 linker, 2e12 VL-VH) (bispecific antibody, not shown: a dimerising Fc or GST) chain (part 1 of 2): QIVLSQSPAILSASPGEKVTMTCRASSSVSYMHWYQQKPGSSPKPWIYAPSNLASGVPARFSGSGSGTSYSLTISRVEAEDAATYYCQQWSFNPPTFGAGTKLELKDGGGSGGGGSGGGGSSQAYLQQSGAESVRPGASVKMSCKASGYTFTSYNMHWVKQTPRQGLEWIGAIYPGNGDTSYNQKFKGKATLTVDKSSSTAYMQLSSLTSEDSAVYFCARVVYYSNSYWYFDVWGTGTTVTVSEPKSSDKTHTSPPSP chain (part 2 of 2): NSDIVLTQSPASLAVSLGQRATISCRASESVEYYVTSLMQWYQQKPGQPPKLLISAASNVESGVPARFSGSGSGTDFSLNIHPVEEDDIAMYFCQQSRKVPWTFGGGTKLEIKRGGGGSGGGGSGGGGSQVQLKESGPGLVAPSQSLSITCTVSGFSLTGYGVNWVRQPPGKGLEWLGMIWGDGSTDYNSALKSRLSITKDNSKSQVFLKMNSLQTDDTARYYCARDGYSNFHYYVMDYWGQGTSVTVSS | binds | binds
